US12716887B2, “Methods of reducing ciliogenesis with alternating electric fields” (Novocure GmbH, priority 2021, dated 2026)
For at least one compound, name, drawing or mass did not settle the structure.

Experiments:
[1] = system: S7 (grade II glioma) cells; experiment: Primary cilia frequency and length by ARL13B immunostaining in S7 glioma cells (adherent or spheres); assay type: cell-based, human; settings: for frequency of cilia (number of cilia per area of sphere): FIG. 6M
Procedure: (§1) We exposed two patient-derived glioma cell lines, L0 (a grade IV glioblastoma) and S7 (a grade II glioma) that grow primary cilia (26, 29, 31-33) to TTFields. We used Novocure's Inovitro™ system to deliver low-intensity (1-4V/cm), 200 kHz electric fields to cultured cells which presumably mimic the type of fields delivered by the Optune® device in patients, similar to recent studies (16, 34). Generally, glioma cells were grown adherent (in serum) on coverslips or as free-floating spheres (without serum) for 3 days, then performed a single exposure to TTFields for up to 24 hours or 3 continuous days at which point we analyzed cells immediately (‘acute’) (FIG. 1A). For repeated TTFields exposures we dissociated cells after 3 days of continuous TTFields and repeated the cycle 2 more times (FIG. 1A). For recovery, after the last day of single or repeated TTFields, we dissociated spheres and cultured cells adherently (with serum) on coverslips and examined cells after 4-5 days.
(§2) L0 (grade IV glioblastoma from a person) and S7 (grade II glioma from a person with EGFR amplification) cell lines were isolated and maintained as previously described (26, 61, 62) (63). ARL13B and KIF3A-deficient L0 and S7 cells were generated using CRISPR/Cas9 as previously described (32). L0 and S7 cells were grown as floating spheres and maintained in NeuroCult NS-A Proliferation medium and 10% proliferation supplement ([…] Technologies; Cat #05750 and #05753), 1% penicillin-streptomycin (Thermofisher, Cat #15140122), 20 ng/ml human epidermal growth factor (hEGF) (Cat #78006), and 10 ng/ml basic fibroblast growth factor (bFGF) (Cat #78003). For S7 cells, the media was supplemented with 2 μg/ml heparin (Cat #07980). All cells were grown in a humidified incubator at 37° C. with 5% CO2. When cells reached confluency, or spheres reached approximately 150 μm in diameter, they were enzymatically dissociated by digestion with Accumax (Innovative Cell Technologies; Cat #AM-105) for 10 min at 37° C. For human cells grown on glass coverslips, NeuroCult NS-A Proliferation medium was supplemented with 10% heat inactivated fetal bovine serum (FBS) (Cytiva, Cat #SH30070.03H1).
(§3) For adherent and spheres, 5×10^4 cells were seeded in 2 ml growth media with or without 10% FBS, respectively. Adherent cells, spheres or biopsies were placed in TTFields ceramic dishes, each dish approximately the size of a single well of a 6-well plate, and mounted into inovitro™ base plates (Novocure Ltd., Haifa, Israel). The base plates were connected to a power generator which delivered TTFields at frequency of 200 kHz (1-4V/cm). During TTFields treatment, cells were maintained in an incubator (ESCO Technologies, Horsham, PA) with the ambient temperature between 18-22° C. with 5% CO2 and a target temperature of 37° C. inside each ceramic dish. Treatment duration are as indicated but ranged from 1 to 72 hours for a single treatment. To prevent media evaporation during TTFields, parafilm was placed over each TTFields ceramic dish. In between repeated exposures or for recovery experiments, cells were dissociated and transferred back to a regular incubator. Control samples were grown at 37° C. in 5% CO2 in 6 well plates. In some experiments, we pretreated cells before TTFields with either vehicle, or specified drugs. Unless otherwise stated, data in each experiment were pooled from at least 4 dishes per condition and per timepoint.
(§4) For cell proliferation assay, cells (2.5-5×10^4) were seeded in 2 ml of growth media per well in 6-well plates, or in 1 ml of growth media per well in 24 well plates for indicated duration. […] After indicated treatment durations, cells were enzymatically dissociated and replaced in 1× phosphate-buffered saline (PBS). Total cell counts were collected using a Bio-Rad TC20 automated cell counter. Bar graphs show the mean (+/− SEM) and were analyzed statistically using analysis of variance (ANOVA). […]

[2] = system: L0 (grade IV glioblastoma) cells; experiment: Primary cilia frequency and length by ARL13B immunostaining in L0 glioblastoma cells (adherent or spheres); assay type: cell-based, human
Procedure: as §1, §2, §3, §4

S7 parental cells = experiment: Cell proliferation / fold expansion (cell counts) of S7 parental cells; assay type: cell-based, human
[3] = system: S7 ARL13B KO (clone G12) cells; experiment: Cell proliferation / fold expansion (cell counts) of S7 ARL13B KO cells; assay type: cell-based, human
[4] = system: patient-derived glioblastoma cells; settings: reference (30); cited from earlier work
[5] = 10 μM TMZ, 24 hours, vs vehicle, FIG. 5A
[6] = spheres, 50 or 100 μM TMZ with 3 days TTFields, FIG. 7B

## Cn1nnc2c(C(N)=O)ncn2c1=O [TMZ, temozolomide]
[1]; [5]
  OFD1 intensity at the base of the cilia: appeared to decrease compared to vehicle
[1]; 10 μM and 50 μM TMZ, 3 days exposure, FIG. 5D
  length of cilia: significantly reduced the length of cilia
[1]; 10 μM and 50 μM TMZ, 3 days exposure, FIG. 5E
  frequency of ciliated cells: significantly increased the frequency of ciliated cells
[1]; 0.3, 3 and 10 μM TMZ, 24 hours exposure, dose-dependent, FIG. 5B
  cilia length: sufficient to increase cilia length
[1]; adherent cells, 10 μM TMZ about 30 minutes before 3 days TTFields, FIG. 6D
  ciliogenesis in the presence of TMZ plus TTFields: ciliogenesis was not observed
[1]; spheres, 50 μM TMZ alone, 3 days
  frequency of cilia (number of cilia per area of sphere): increased the frequency of cilia
[1]; spheres, TTFields plus 50 μM TMZ, 3 days
  frequency of cilia (number of cilia per area of sphere): TMZ-induced increase did not occur
[1]; spheres, vehicle, 50 μM TMZ, TTFields, TTFields plus TMZ, 3 days, FIG. 6N
  length of cilia: did not observe a change in the length of cilia
[2]; 10 μM TMZ, 24 hours, compared to lower TMZ concentrations and vehicle, FIG. 5C
  length of ARL13B+ cilia: significantly increased the length of ARL13B+ cilia
[2]; [5]
  OFD1 intensity at the base of the cilia: appeared to decrease compared to vehicle
[2]; 10 μM or 50 μM TMZ, 3 days exposure, FIG. 5F
  cilia length: did not affect cilia length
[2]; 10 μM or 50 μM TMZ, 3 days exposure, FIG. 5G
  frequency of ciliated cells: significantly increased the frequency of ciliated L0 cells
[2]; adherent cells, 20 μM TMZ about 30 minutes before 3 days TTFields, FIG. 6H
  ciliogenesis in the presence of TMZ plus TTFields: ciliogenesis was not observed
[2]; spheres, 50 μM TMZ alone, 3 days, FIG. 6O
  frequency of cilia (number of cilia per area of sphere): did not increase the frequency of cilia
[2]; spheres, TTFields plus 50 μM TMZ vs TTFields, 3 days, FIG. 6O
  TTFields reduction of frequency of cilia: not enhanced
S7 parental cells; POST: 100 μM TMZ 3 days after 24 hr TTFields, FIG. 7E
  acute cell numbers, TTFields-TMZ vs control: did not observe an acute reduction
S7 parental cells; POST: 100 μM TMZ 3 days after 24 hr TTFields, FIG. 7F
  cells (fold expansion) seven days after treatment, TTFields-TMZ vs control: significant reduction
S7 parental cells; PRE: 100 μM TMZ 3 days before 24 hr TTFields, FIG. 7D
  fold expansion seven days after treatment, TMZ-TTFields vs veh-TTFields: significantly reduced compared to veh-TTFields
S7 parental cells; spheres, 100 μM TMZ, 3 days, without TTFields, FIG. 7A
  proliferation (normalized cell number, % of control): proliferation was reduced
S7 parental cells; [6]
  added toxicity of TMZ co-treatment with TTFields: no added toxicity
[3]; POST: TMZ after 24 hr TTFields, 6 days expansion, FIG. 7G
  fold expansion, TTFields-TMZ vs TTFields-Veh: no significant difference
[3]; spheres, 50 μM and 100 μM TMZ, 3 days, without TTFields, FIG. 7A
  proliferation (normalized cell number, % of control): proliferation was significantly reduced
[3]; [6]
  added toxicity of TMZ co-treatment with TTFields: no added toxicity
[4]
  frequency and length of ARL13B+ cilia: increase the frequency and length of ARL13B+ cilia
